Values quoted from earlier work as cited in patent US8617611B2, “Polymeric compositions comprising therapeutic agents in crystalline phases, and methods of forming the same” (Cordis Corporation, priority 2005, dated 2013).

solubility in organic solvents (dioxane, chloroform, acetone, acetonitrile, benzyl alcohol): highly soluble | solubility in water (water): insoluble
SMILES: CO[C@H]1C[C@@H]2CC[C@@H](C)[C@@](O)(O2)C(=O)C(=O)N2CCCC[C@H]2C(=O)O[C@H]([C@H](C)C[C@@H]2CC[C@@H](O)[C@H](OC)C2)CC(=O)[C@H](C)/C=C(\C)[C@@H](O)[C@@H](OC)C(=O)[C@H](C)C[C@H](C)/C=C/C=C/C=C/1C [Sirolimus]
